Measurements reported in PubChem BioAssay AID686943 (Drosophila RNAi Screening Center, 2013)
The screen tested about 23,000 reagents; this is a random part of those with a known target gene and a result. 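Extra replicates exist only for a retested subset of genes; insulin dose and duration not given; both raised and lowered dpERK matter.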 The numbers tell different reagents against one gene apart. A plus sign joins genes that one reagent is predicted to hit. The record does not give: the amount of reagent, the time to read-out.

- Test: 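Knockdowns that increase or decrease active ERK after insulin receptor stimulation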 (primary screen)
- System: Drosophila S2R+ haemocyte-like cells expressing YFP-tagged ERK (Rolled)
- Knock-down reagent: long dsRNA against Drosophila genes
- Conditions: insulin stimulation versus unstimulated cells; dose and duration not given
- Measured: 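Per-plate z-scores of phospho-ERK immunostaining normalised to YFP-tagged ERK, measured with and without insulin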
- Reading the numbers: replicate 1, z-score of dpERK with insulin and replicate 2, z-score of dpERK with insulin: higher = more active ERK per ERK-YFP after insulin; replicate 1, z-score of dpERK under basal conditions: higher = more basal active ERK per ERK-YFP; replicate 1, z-score of ERK-YFP with insulin: higher = more YFP-tagged ERK signal

Target gene | reagent no. | replicate 1, z-score of dpERK with insulin | replicate 2, z-score of dpERK with insulin | replicate 1, z-score of dpERK under basal conditions | replicate 1, z-score of ERK-YFP with insulin
CG9281 | 1 | 0.06 | 0.1 | 0.32 | 0.28
L2HGDH | 1 | 0.06 | 0.32 | 1.82 | 0.41
CG32820 + CG17450 + CG32819 | 1 | -0.29 | -2.36 | 0.55 | -0.27
CG32820 + CG17450 + CG32819 | 2 | -0.49 | -0.06 | -0.71 | 0.59
pad | 1 | 0.03 | 0.12 | 0.01 | -0.03
ThrRS | 1 | 0.46 | 0.7 | 0.1 | 0.16
mop | 1 | -0.04 | 0.21 | -0.67 | 0.11
Sirt7 | 1 | -0.48 | 1.47 | -0.47 | 0.57
CG13962 | 1 | 0.11 | -0.22 | 2.34 | 0.14
mRpS23 | 1 | 0.51 | 0.11 | -0.41 | 0.47
gammaSnap2 | 1 | 0 | 0.67 | 1 | 0.19
CG12078 | 1 | 0.72 | 0.21 | -0.12 | -0.21
CG6325 | 1 | 0.68 | 0.34 | 0.16 | -0.9
CG8237 | 1 | -0.85 | -0.64 | -1.3 | 0.65
Rnf146 | 1 | -0.88 | -0.18 | -0.79 | 0.6
CG2157 | 1 | 0.89 | 0.47 | 1.72 | 0.09
Evi5 | 1 | 0.02 | 0.09 | 0.27 | -0.12
cas | 1 | -0.04 | -0.25 | -0.5 | -0.33
Lasp | 1 | -0.02 | 0.39 | -0.26 | 1.16
CR43105 | 1 | -1.62 | -1.45 | -0.89 | -0.65
Etl1 | 1 | 0.1 | -0.53 | -0.6 | 0.11

In a second layout: results already given
| Target gene | reagent no. | replicate 1, z-score of dpERK with insulin | replicate 2, z-score of dpERK with insulin | replicate 1, z-score of dpERK under basal conditions | replicate 1, z-score of ERK-YFP with insulin |
| --- | --- | --- | --- | --- | --- |
| mop | 1 | -0.04 | 0.21 | -0.67 | 0.11 |
| Sirt7 | 1 | -0.48 | 1.47 | -0.47 | 0.57 |

Next reagents follow.
Target gene | reagent no. | replicate 1, z-score of dpERK with insulin | replicate 2, z-score of dpERK with insulin | replicate 1, z-score of dpERK under basal conditions | replicate 1, z-score of ERK-YFP with insulin
CG3788 | 1 | 1.39 | 0.15 | -0.14 | -0.36
CG1571 | 1 | 0.78 | 0.05 | 2.62 | -0.03
Grl65a | 1 | 0.77 | 0.91 | 1.37 | 0.4
Mekk1 | 1 | -1.29 | -0.66 | -0.17 | 0.88
Mekk1 | 2 | -0.13 | -0.26 | -1.17 | 0.34
Pgant7 | 1 | 0.01 | 0.12 | 0.19 | -0.31
osy | 1 | -0.43 | -0.11 | -0.66 | 0.32
osy | 2 | 0.48 | -0.04 | 1.26 | 0.29
osy | 3 | 0.21 | -0.61 | 0.5 | -0.2
Ugt37A1 | 1 | 0.67 | -0.54 | 0.45 | -0.59
l(2)37Cb | 1 | 0.53 | 0.16 | 0.51 | 0.25
CG14931 | 1 | -0.79 | -0.69 | 0 | -0.13
VhaAC39-2 | 1 | 0.4 | 0.11 | 1.04 | 0.17
RpS19a | 1 | 0.86 | -2.29 | 0.52 | -5.36
Hsp110 | 1 | 0.36 | -1.2 | 0.06 | 0.14
CG17612 | 1 | -0.14 | -0.54 | -0.26 | -1.21
Faf2 | 1 | 0.58 | 0.98 | 0.14 | -0.46
CG13331 | 1 | -0.99 | 0.35 | 0.18 | 0.67
